Source: PubChem BioAssay AID623959 (National Center for Advancing Translational Sciences (NCATS), 2012)
The campaign covered roughly 1,400 compounds. Fewer than 10 were called active. About 8% were inconclusive and are not listed. Calls come from the whole dose curve; as a rule, active = well fitted curve in the direction sought with a large enough effect; inconclusive = small, poorly fitted or top-dose-only effect, or another doubt; inactive = no such curve, though single readings can be large or run the other way. This is one part of the list.

By UniProt entry, the sequences of proteins in these tests, tags left out.
UniProt Q8NER1, whole entry, looked up: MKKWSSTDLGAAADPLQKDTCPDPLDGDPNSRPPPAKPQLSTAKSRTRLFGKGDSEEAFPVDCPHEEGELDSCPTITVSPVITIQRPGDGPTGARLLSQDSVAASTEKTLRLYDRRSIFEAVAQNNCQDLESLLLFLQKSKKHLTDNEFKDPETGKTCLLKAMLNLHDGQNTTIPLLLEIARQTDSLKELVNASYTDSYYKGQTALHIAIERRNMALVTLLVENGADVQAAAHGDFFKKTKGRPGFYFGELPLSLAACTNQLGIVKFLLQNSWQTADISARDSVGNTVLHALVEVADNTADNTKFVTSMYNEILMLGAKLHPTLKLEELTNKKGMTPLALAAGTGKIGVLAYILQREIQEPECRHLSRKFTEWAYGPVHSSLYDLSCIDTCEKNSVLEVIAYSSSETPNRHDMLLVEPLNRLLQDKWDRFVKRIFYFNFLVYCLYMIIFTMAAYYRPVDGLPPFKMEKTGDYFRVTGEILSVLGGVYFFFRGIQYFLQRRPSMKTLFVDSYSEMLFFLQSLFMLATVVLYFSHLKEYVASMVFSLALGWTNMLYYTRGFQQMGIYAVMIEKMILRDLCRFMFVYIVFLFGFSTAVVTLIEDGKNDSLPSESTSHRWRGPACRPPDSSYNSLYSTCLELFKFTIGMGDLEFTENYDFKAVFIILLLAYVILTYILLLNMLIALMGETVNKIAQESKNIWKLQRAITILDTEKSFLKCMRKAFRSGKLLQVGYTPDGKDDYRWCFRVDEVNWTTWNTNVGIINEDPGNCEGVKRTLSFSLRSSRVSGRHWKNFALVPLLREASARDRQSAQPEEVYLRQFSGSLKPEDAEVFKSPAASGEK

Target: Transient receptor potential cation channel subfamily V member 1 (Homo sapiens) (UniProt Q8NER1)
Assay: qHTS Assay for Compounds that Act as Potentiators of the Vanilloid Receptor 1: Hit Validation; note: % of control where 0% means no effect
Settings: TRPV1-expressing cells, Fluo-8 calcium influx, capsaicin EC20; series mostly up to 42.1 µM; activity change, positive = potentiation: at the top concentration
Description: The transient receptor potential ion channel, family V, number 1, (TRPV1) is one of the most important molecular transducers of painful stimuli and a potential target for analgesic drug development. Although recent clinical trials with orthosteric antagonists have not produced a successful drug because of a hyperthermia side effect and their tendency to block thermal noxious pain, this ion channel is undeniably well placed in the pain pathway, and the idea of blocking pain signals before they enter the CNS is an excellent concept and of proven efficacy when TRPV1 agonists are used. We propose a new approach involving allosteric modulation to impose an activity-dependent constraint within the context of inflammation and tissue damage that would alter the responsiveness of the channel in a way that an orthosteric vanilloid antagonist cannot achieve. We believe that the allosteric modulator approach has not been explored for this target. The main goal of this proposal is to identify additional, new, potent allosteric modulators of TRPV1 that can be used to investigate TRPV1 function. Our recent report provides evidence of proof of concept, but the compounds are just at the edge of utility in terms of potency. […] The question of whether they can be used as analgesic agents is complex, but if suitable compounds are identified then testing for analgesic properties will be conducted. Compounds identified as agonists were re-tested in the primary screen for hit validation. NIH Chemical Genomics Center [NCGC] NIH Molecular Libraries Probe Centers Network [MLPCN] MLPCN Grant: MH089480 Assay Submitter (PI): Michael Iadarola, National Institute of Dental and Cranofacial Research
Upon TRPV1 activation in TRPV1 cells, the channel opens and extracellular cations flow through the channel into the cytosol. A calcium binding dye (Fluo-8) becomes fluorescent when bound to calcium. This dye is pre-loaded into cells and is used as a marker for calcium influx. The amount of accumulated calcium is precisely quantified using the FDSS kinetic reader and the calcium dye. For the HTS assay, freshly prepared cells are plated at a density of 2000/well in 3 ul medium in 1536-well plates and cultured overnight at 35.5C. Cells will be loaded with 1 ul of the homogeneous calcium dye (ABD Bioquest) at room temperature for 40 to 90 minutes. Plates will be loaded into the FDSS kinetic reader and a 1 sec / cycle for 10 second baseline signal will be measured. Compound library will then be added with a pintool at 23 nl and measured kinetically for 3 minutes. This portion of the read is considered the agonist portion of the screen. Following the 3 minutes of incubation, an on board pipettor will deliver 1 ul of capsaicin for a final concentration equal to the EC20. Signal will be measured kinetically for an additional 2 minutes. This portion of the read is considered the allosteric enhancer portion of the screen. The FDSS reader has a standard filter set capable of measuring calcium bound Fluo-8 (ex=480 and em=520 nm).

Activity change, positive = potentiation, inactive:
CC(=O)N1CCN(C(=O)c2cc(S(=O)(=O)N3CCN(c4ccccc4)CC3)ccc2Cl)CC1 0.0319%, CSc1ccccc1NC(=O)c1cccs1 -12.5%, Cc1ccccc1NC(=O)CCN1CCN(Cc2ccccc2)CC1 6.3%, O=C(COc1ccccc1Cl)NCCCNC(=O)c1ccco1 -5.63%, COc1ccc(C(=O)Nc2nc3ccccc3s2)cc1 -36%, Cc1cc(C(F)(F)F)n2nc(-c3cnn(C)c3C(F)(F)F)c(Br)c2n1 -6.52%, O=C(Nc1ccc(S(=O)(=O)NC2=NCCCCC2)cc1)c1ccc([N+](=O)[O-])s1 10.5%, COCCN1C(=O)N(c2cccc(C)c2)C(=O)C1CC(=O)Nc1cc(OC)cc(OC)c1 (centres undefined) 0.774%, COc1ccc(Nc2ccc(N3C(=O)CC(C)C3=O)cc2[N+](=O)[O-])cn1 (centres undefined) -9.15%, COc1ccc(NC(=O)c2sc3nc(C)cc(C)c3c2N)cc1 5.48%, O=C(N/N=C/c1c(O)n(-c2ccccc2Cl)c(=O)c2ccccc12)c1cccnc1 2.99%, COc1ccc(S(=O)(=O)Nc2ccc(Oc3ccsc3C(=O)O)cc2)cc1 -0.892%, CC(C)c1ccc(NC2CCCN(C(=O)c3ccnc(Cl)c3)C2)cc1 (centres undefined) -38.9%, COc1ccc(/C=C/C(=O)Nc2cccnc2Cl)cc1 -37.6%, Cc1nn(-c2ccccc2)nc1C(=O)Nc1ccc2[nH]ncc2c1 -35%, Cn1c(=O)oc2cc(S(=O)(=O)N3CCCC(C(=O)NC4CCCc5ccccc54)C3)ccc21 (centres undefined) -5.23%, COc1cc(OC)cc(C(=O)Nc2c(F)cccc2F)c1 -4.51%, CC(C)C[C@H](NC(=O)c1nc[nH]c1C(=O)N1CCC(C)CC1)C(=O)OCc1ccccc1 -10.6%, CNC(=S)NNC(=O)CNc1ccc(C)c(Cl)c1 -9.79%, COc1cc(NC(=O)CSc2nc(C)cc(C)n2)cc(OC)c1OC 0.95%, COc1ccc(N2C(=O)CSC2c2cccs2)cc1 (centres undefined) -5.89%, O=C(CSc1nc2ccccc2[nH]1)c1ccccc1F 3.85%, CCS(=O)(=O)N1Cc2ccccc2CC1C(=O)Nc1nnc(SCc2ccc(F)cc2)s1 (centres undefined) 17.8%, CCOc1ccc(NC(=O)Cc2c(C(=O)O)n(C)c3ccccc23)cc1 -7.56%, COc1ccc(/C=N/N2CCN(c3ccccc3)CC2)cc1Br -11.7%, COc1ccc(-c2ccc(NS(=O)(=O)c3cc([N+](=O)[O-])ccc3C)cc2)nn1 3.92%, O=C(NC(Cc1c[nH]c2ccccc12)C(=O)N/N=C/c1ccc(Br)cc1)c1cccs1 (centres undefined) 0.128%, C=CCn1c(SCC(=O)Nc2sc3c(c2C#N)CCC3)nnc1C1COc2ccccc2O1 (centres undefined) 2.16%, O=C(O)c1c(-c2ccccc2)oc2ccc(O)cc12 -2.13%, O=C1N/C(=C/c2cccs2)C(=O)N1Cc1ccc(Br)cc1 -8.53%, CSc1ccccc1C(=O)N1CCCC(CNC(=O)c2ccc(F)cc2)C1 (centres undefined) -5.38%, CC(=O)c1cccc(Nc2nc(-c3ccccc3)nc3ccccc23)c1 -6.61%, CC(C)(C)C(=O)Nc1cccc(-c2nc3ccccc3[nH]2)c1 7.02%, COC(=O)c1sccc1NC(=O)CSc1ccccc1NS(=O)(=O)c1ccccc1Cl -5.58%, COCCCNC(=O)Cn1cc(C(=O)C2CC2)c2ccccc21 -4.57%, COc1ccc(C(=O)Nc2ccc3ccccc3c2)cc1 -32.9%, CCn1cc(C(=O)NCCc2ccccc2)c(=O)c2cc(S(=O)(=O)N3CCCC3)ccc21 -38.5%, COc1ccc(C2=NCCn3nc4cc(OC)ccc4c32)cc1 3.66%, O=[N+]([O-])c1ccc(/C=C/c2nc3ccc([N+](=O)[O-])cc3[nH]2)cc1 -7.44%, Cc1cc(NC(=O)C(C)C)ncc1NC(=O)c1cccc(F)c1 -6.46%, CC(C)(C)c1ccc(/C=C/C(=O)Nc2cccnc2)cc1 -39.1%, CN(C(=O)CC(=O)Nc1ccc(Cl)c(Cl)c1)c1ccccc1 -10.8%, O=C(N1CCOCC1)N1CCN(c2ccccc2F)CC1 -38%, COc1cccc(OCCNC(=O)c2cc(OC)c(OC)c(OC)c2)c1 7.86%, Cc1nc(Nc2cccc(F)c2)c2oc3ccccc3c2n1 -37%, N#C/C(=N\Nc1ccc([N+](=O)[O-])cc1)C(=N)N1CCOCC1 -13.4%, COCCn1cnnc1SCC(=O)Nc1cc(OC)c([N+](=O)[O-])cc1C -6.14%, COc1ccc(NS(=O)(=O)c2cc(NC(=O)c3ccc(C)s3)ccc2N2CCOCC2)cc1 -38.4%, CC(C)(C)c1ccc(NC(=S)NCc2cccnc2)cc1 -26.5%, Cc1nc2ccc(NC(=O)c3ccc([N+](=O)[O-])cc3[N+](=O)[O-])cc2s1 -0.43%, Cc1ccc2oc(C(=O)NCC3CCOCC3)c(C)c2c1 -38.8%, O=C(c1ccc(-c2cccc(C(F)(F)F)c2)o1)N1CCOCC1 -36.7%, COC(=O)[C@H](C)NC(=O)c1cc2c(cn1)[nH]c1ccccc12 11%, O=C(COC(=O)c1nsc(Cl)c1Cl)NC1CCCCC1 -2.6%, CCc1ccc(/C=C2/SC(N3CCOCC3)=NC2=O)cc1 -37.3%, CCn1c(Cc2c(C)[nH]c3ccccc23)nnc1SCC(=O)NCc1ccccc1 12.1%, CC(C)CN(C(=O)COC(=O)CNC(=O)c1sc2ccccc2c1Cl)C1CCS(=O)(=O)C1 (centres undefined) 10.5%, CN1C(=O)/C(=C/c2cccc(Cl)c2)Sc2ccc(C(=O)NCc3cccnc3)cc21 -3.84%, CCc1ccc(NC(=O)C2CCCN(S(=O)(=O)c3c(C)[nH]c(=O)[nH]c3=O)C2)cc1 (centres undefined) -5.4%, Cc1cc(N2CCOCC2)nc2ccc(Cl)cc12 -1.08%, COc1ccc2c(c1)C(c1ccc(Cl)cc1)NC(=O)C2 (centres undefined) -5.08%, NCC(O)COc1ccc2c(c1)OCO2 (centres undefined) -3.55%, COC(=O)C(C(=O)Nc1nc2ccccc2s1)C1CCCC1 (centres undefined) -7.89%, Cc1ccc2cc(C(=O)O)c(C)nc2c1 0.282%, CCC(=O)N1CCc2cc(Br)cc(S(=O)(=O)NC3CCN(Cc4ccccc4)CC3)c21 0.77%, O=C(Nc1ccccc1)O/N=C/c1ccc(F)cc1 7.23%, CC(C)=NOCC(=O)Nn1c(COc2ccccc2)nc2ccccc2c1=O 4.02%, CCN(CC)S(=O)(=O)c1cc(NC(=O)c2ccc(Br)s2)ccc1C -38.1%, CCc1c(C)nc(N2CCN(c3ccc(Cl)cc3)CC2)[nH]c1=O 5.91%, COc1ccc(NS(=O)(=O)c2cc(NC(=O)c3cnc(C)cn3)ccc2N2CCCCC2)cc1 -38%, CC1CCCN(c2ccc(C(=O)Nc3cccnc3)cc2[N+](=O)[O-])C1 (centres undefined) -39.7%, NNC(=O)C1COc2cc3ccccc3cc2O1 (centres undefined) -31.3%, CC(=O)c1ccc(NC(=O)N2CCN(c3ccc(C)cc3)C(C)C2)cc1 (centres undefined) -39.5%, OCC1(CCc2ccccc2)CCCN(C/C=C/c2ccccc2)C1 (centres undefined) -14.6%, COc1ccc(CC(=O)Nc2ccc(S(=O)(=O)N3CCCCC3)cc2)cc1OC -36.2%, CCOC(=O)c1sc(NC(=O)CN2CC(C)OC(C)C2)nc1C (centres undefined) -7.7%, CCCn1c(SC(C)C(=O)N2CCOCC2)nc2ccc(Br)cc2c1=O (centres undefined) -38.5%, N#Cc1cc(C(=O)c2cc(Cl)ccc2O)cn(CC2CCCO2)c1=O (centres undefined) -5.19%, Cc1ccccc1C(=O)NCCCNC(=O)c1ccccn1 -5.24%, N#Cc1c(-c2ccccc2)cc(-c2ccccc2)nc1SCCC(=O)O 1%, COc1ccc(-n2nc(C(=O)O)cc2-c2ccccc2)cc1 4.13%, c1ccc(-n2ncc3c(NCc4ccc5c(c4)OCO5)ncnc32)cc1 -4.32%, O=C(Nc1ccc(S(=O)(=O)Nc2ccccn2)cc1)c1cccc([N+](=O)[O-])c1 0.669%, CCOC(=O)N1CCN(C(=O)C2CC(c3cc(OC)ccc3OC)=NO2)CC1 (centres undefined) 5.66%, C=CCNc1oc(-c2ccc(OC)cc2)nc1C#N 13.8%, CN(C(=O)CSc1nc(C2CC2)nc2ccccc12)c1nc(-c2ccccc2)cs1 -5.26%, COc1ccc(CC(=O)Nc2oc(-c3ccccc3)c(-c3ccccc3)c2C#N)cc1OC -38.8%, COc1ccccc1N1CCN(C(=O)c2cc(C(C)(C)C)oc2C)CC1 -23.9%, COc1ccc(NC(=O)CSc2nnc(CNC(=O)c3ccco3)o2)cc1 -25%, COc1ccc(C(=O)N/N=C/c2ccc(OC)c(CSc3ccccn3)c2)cc1 6.12%, Cn1c(=O)c2c(nc(N3CCOCC3)n2CCc2ccccc2)n(C)c1=O -5.97%, O=C(Nc1ccccc1)N1CCCN(c2nccc(C(F)(F)F)n2)CC1 -36%, N#Cc1ccsc1NC(=O)C1CCN(C(=O)c2ccc(Cl)cc2)CC1 4.76%, Cn1c(-c2ccc(F)cc2)cc2onc(-c3ccccc3Cl)c2c1=O -6.62%, O=c1[nH]c(SCc2cccc(F)c2)nc2ccccc12 1.6%, Cc1ccc(C(C)C)c(OCCSc2nc3ccccc3n2CC(=O)O)c1 -4.84%, O=C(Nc1ccccc1)Nc1nnc(SCc2ccc(Cl)cc2)s1 13.8%, Cc1cccc(NC(=O)CS(=O)(=O)c2cn(C)c3ccccc23)c1 -6.57%, CCC1=C2CC[C@H]3C(=O)N(C)C(=O)[C@H]3[C@H]2[C@@]2(Cc3ccccc3)C(=NCCOC)OC(=O)N2C1=O -11.5%, O=S(=O)(c1ccccc1)N1CCN=C1SCc1ccccc1Cl -0.824%, O=[N+]([O-])c1ccc(O)c(/C=N/Nc2ccccc2[N+](=O)[O-])c1 8.79%, COc1ccc(CNC(=O)C2CC(c3ccc(C(F)(F)F)cc3)=NO2)cc1 (centres undefined) -6.96%, Cn1c(SC(C(=O)Nc2ccc(F)cc2)c2ccccc2)nc2ccccc21 (centres undefined) -37.9%, COc1cc(N2Cc3ccccc3C2)ccc1C=O -0.201%, O=C(Nc1ccc(C(=O)N2CCC(O)(c3ccc(Cl)c(C(F)(F)F)c3)CC2)cc1)c1ccc(Br)o1 4.02%, CCC(C(=O)OC)n1cnc2c(nnn2-c2cccc(OC)c2)c1=O (centres undefined) -7.38%, N#Cc1cnn(-c2ccccc2)c1N 1.83%, O=[N+]([O-])c1ccccc1Nc1cccnc1 -6.87%, Cc1cc(C)cc(N(C(=O)CNS(=O)(=O)c2ccccc2)C(C(=O)NCc2ccccc2)c2ccc(C)o2)c1 (centres undefined) -7.44%
